Measured values taken from the supplement of paper PMC11546906.
Structures can show the parent of a compound that is named as a salt. The list shows a part of the results. This data set is noisy: repeats of one test often differ as much as different tests do.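 Screen of FDA-approved drugs, each combined with colistin at one-eighth of its MIC, against a multidrug-resistant mcr-1-positive clinical E. coli isolate; growth read as OD600 after 24 h. Bacteria without drug were the growth control and plain broth the blank. A combination counted as active when OD600 fell below 0.2.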

tested on: Escherichia coli 42 (mcr-1-positive clinical isolate); assay: OD600 after 24 h growth with compound plus colistin (absorbance units (OD600)); higher = more bacterial growth (less inhibition); conditions: first compound 25 µM; colistin concentration 0.5 ug/mL; incubation time 24 h; 37 °C

| SMILES | OD600 |
| --- | --- |
| NC(=O)c1cn(Cc2c(F)cccc2F)nn1 [Rufinamide] + CCC(C)CCCC(=O)N[C@@H](CCN)C(=O)N[C@H](C(=O)N[C@@H](CCN)C(=O)N[C@H]1CCNC(=O)[C@H]([C@@H](C)O)NC(=O)[C@H](CCN)NC(=O)[C@H](CCN)NC(=O)[C@H](CC(C)C)NC(=O)[C@@H](CC(C)C)NC(=O)[C@H](CCN)NC1=O)[C@@H](C)O [colistin] | inactive: 0.936 |
| CN(C)CCC(c1ccc(Br)cc1)c1ccccn1 (centres undefined) [Brompheniramine maleate] + CCC(C)CCCC(=O)N[C@@H](CCN)C(=O)N[C@H](C(=O)N[C@@H](CCN)C(=O)N[C@H]1CCNC(=O)[C@H]([C@@H](C)O)NC(=O)[C@H](CCN)NC(=O)[C@H](CCN)NC(=O)[C@H](CC(C)C)NC(=O)[C@@H](CC(C)C)NC(=O)[C@H](CCN)NC1=O)[C@@H](C)O [colistin] | inactive: 0.99 |
| CN1[C@@H]2CC[C@H]1C[C@@H](OC(c1ccccc1)c1ccccc1)C2 [Benztropine mesylate] + CCC(C)CCCC(=O)N[C@@H](CCN)C(=O)N[C@H](C(=O)N[C@@H](CCN)C(=O)N[C@H]1CCNC(=O)[C@H]([C@@H](C)O)NC(=O)[C@H](CCN)NC(=O)[C@H](CCN)NC(=O)[C@H](CC(C)C)NC(=O)[C@@H](CC(C)C)NC(=O)[C@H](CCN)NC1=O)[C@@H](C)O [colistin] | inactive: 0.883 |
| CC#C[C@]1(O)CC[C@H]2[C@@H]3CCC4=CC(=O)CCC4=C3[C@@H](c3ccc(N(C)C)cc3)C[C@@]21C [Mifepristone] + CCC(C)CCCC(=O)N[C@@H](CCN)C(=O)N[C@H](C(=O)N[C@@H](CCN)C(=O)N[C@H]1CCNC(=O)[C@H]([C@@H](C)O)NC(=O)[C@H](CCN)NC(=O)[C@H](CCN)NC(=O)[C@H](CC(C)C)NC(=O)[C@@H](CC(C)C)NC(=O)[C@H](CCN)NC1=O)[C@@H](C)O [colistin] | inactive: 1.15 |
